The record followed here is patent US20240002505A1.

By UniProt entry, the sequences of proteins in these tests, tags left out. Residues count along the entry.
UniProt P06127, residues 25-372: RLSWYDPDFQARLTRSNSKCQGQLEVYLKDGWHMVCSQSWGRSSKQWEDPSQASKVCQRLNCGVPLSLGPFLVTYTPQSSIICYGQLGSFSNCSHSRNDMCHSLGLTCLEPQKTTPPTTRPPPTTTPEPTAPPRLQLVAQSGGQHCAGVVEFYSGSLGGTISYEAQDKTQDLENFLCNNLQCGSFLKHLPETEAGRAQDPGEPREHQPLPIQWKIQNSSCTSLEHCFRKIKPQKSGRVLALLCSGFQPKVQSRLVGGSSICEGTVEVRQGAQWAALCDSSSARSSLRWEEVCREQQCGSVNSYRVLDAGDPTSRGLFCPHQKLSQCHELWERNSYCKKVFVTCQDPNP

Positions count from the first letter of the chain named. No constants are given. Whether binding was seen depends on the method and setting. Some entries that bind do so weakly or less than the wild type.

For this assay, the target named is CD5 antigen (Octet affinity determination, Example 8) (UniProt P06127). Kind of assay: BLI (Octet). On the technique in general: In BLI a coated tip is dipped into the sample, and binding shifts an interference pattern.

B1: Clone 10 anti-CD5 IgG (antibody, V domains shown)
VH: EVQLLESGGGLVKPGGSLRLSCAASGFTFNNYTMNWVRQAPGKGLEWVSSISSSSSYIYYADSVKGRFTISRDNAKNSLFLQMNSLRGEDTAVYYCARYFSGSAGDYWGQGTLVTVSS
VL: QSVVTQPPSVSGAPGQRVTISCTGSSSNIGAGYDVHWYQQLPGTAPKLLIYGNINRPSGVPDRFSGSKSGTSASLAITGLQAEDEADYYCGTWDNSLSAHYVFGTGTKVTVLG
For B1, the binding entry was “binds”.

B2: Clone 32 anti-CD5 IgG (antibody, V domains shown)
VH: QVQLVESGGGLVKPGGSLRLSCAASGFTFSSYSMNWVRQAPGKGLEWVSSISSSSSYIYYADSVKGRFTISRDNAKNSLYLQMNSLRAEDTAVYYCARGNPWYGVDYWGQGTLVTVSS
VL: QSVLTQPPSVSAAPGQKVTISCSGSNSNIGNNYVSWYQQLPGTAPKRLIYDNNKRPSGIPDRFSGSKSGTSATLGITGLQTGDEADYYCGIWDSSLDAYVFGTGTKVTVLG
B2: the binding result was “binds”.

B3: Clone 35 anti-CD5 IgG (antibody, V domains shown)
VH: QVQLVESGGGLVQPGGSLRLSCAASGFTFSSYAMSWVRQTPGKGLEWVSTITDSGDITYYTASVQGRFTISRDNSKNTLYLQMNSLRAEDTAVYYCARMSSHWYFSADYWGQGTLVTVSS
VL: B2 VL with N26S, R47L, I91T, D97S, Y99V, T103G, V107L
As for B3, the binding result is listed as “binds”.
